Test results published in patent publication US20240158457A1, “INTERLEUKIN-18 RECEPTOR BINDING POLYPEPTIDES AND USES THEREOF” (Medikine, Inc., priority 2022, published 2024).
Part of at least one peptide drawing is inferred or uncertain, most often the ends. Where a SMILES comes first, the peptide text is derived from it. Bridges are numbered along the chain shown (N, C = ends).

How the values were obtained:
[1] = target: T1, IL-18 Binding Protein (IL-18BP) (Homo sapiens, UniProt O95998); assay: Direct binding ELISA for IL-18BP; conditions: C-terminally biotinylated forms of peptides; at up to 100 nM IL-18BP
T1 construct: purchased ACROBiosystems (Acro); R&D Systems ILP-H5253; 119-BP
T1 sequence (O95998 31-194): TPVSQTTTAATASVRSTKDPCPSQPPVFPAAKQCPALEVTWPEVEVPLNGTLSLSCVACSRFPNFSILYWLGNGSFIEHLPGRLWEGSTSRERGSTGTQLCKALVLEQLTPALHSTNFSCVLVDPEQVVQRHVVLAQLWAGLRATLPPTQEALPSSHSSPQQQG
Experimental: Binding of synthetic monomer peptides to IL-18 Binding Protein (IL-18BP) was measured using a direct binding ELISA. Briefly, 96-well ELISA plates were coated with NeutrAvidin (NA) at 5 μg per well in PBS, washed, then blocked with PBS containing 1% BSA. Wells were washed and representative peptides, synthesized with a C-terminal biotin were diluted to 300 nM in assay buffer and added to the NA coated wells. Wells were washed and serial dilutions starting at 100 nM of IL-18R subunits, IL-18BP from either of two sources (Acro #ILP-H5253 and R&D #119-BP), and control IgG Fc fusions) were added to the wells and incubated for 1 hr at 4° C. Then plates were washed and goat anti-human IgG Fc-HRP (Southern Biotech #2048-05) detection antibody was added for 1 hr. Wells were developed with TMB for 5-15 min and the enzyme reaction was stopped with a H2SO4 solution.

IL-18Rα = target: T2, IL-18Rα (Homo sapiens, UniProt Q13478); assay: Competition ELISA, binding to the IL-18Rα subunit; conditions: IL-18R alpha binding moieties
T2 construct: CD218a protein, Fc tag; ECD 19-329; purchased ACROBiosystems, Inc IL1-H5259
T2 sequence (Q13478 19-329): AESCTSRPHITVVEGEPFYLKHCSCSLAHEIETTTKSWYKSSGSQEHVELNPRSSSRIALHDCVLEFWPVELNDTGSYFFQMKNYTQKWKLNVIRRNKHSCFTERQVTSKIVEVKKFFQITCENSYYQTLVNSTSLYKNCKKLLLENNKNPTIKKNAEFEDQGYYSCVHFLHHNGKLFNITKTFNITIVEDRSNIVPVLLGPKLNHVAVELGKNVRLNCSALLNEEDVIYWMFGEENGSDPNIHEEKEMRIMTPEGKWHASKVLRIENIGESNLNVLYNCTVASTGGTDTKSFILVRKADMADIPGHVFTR

CC[C@H](C)[C@H](NC(=O)CNC(=O)CN)C(=O)N[C@H]1CSSC[C@@H](C(=O)N[C@H](C(=O)NCC(=O)NCC(=O)O)[C@@H](C)O)NC(=O)[C@H](CCSC)NC(=O)[C@H](CC(C)C)NC(=O)[C@H](CCC(=O)O)NC(=O)[C@H](CC(=O)O)NC(=O)[C@H](CC(C)C)NC(=O)[C@H](Cc2ccc(O)cc2)NC(=O)[C@H](Cc2c[nH]cn2)NC(=O)[C@H](Cc2ccccc2)NC(=O)[C@@H]2CCCN2C(=O)[C@H](C(C)C)NC(=O)[C@H](Cc2c[nH]c3ccccc23)NC1=O [Dimer 4D07, GGICWVPFHYLDELMCTGG] (H-GGICWVPFHYLDELMCTGG-OH; disulfide 4-16 (inferred); N-terminus and C-terminus assumed)
binding to IL-18BP [1]: did not exhibit binding
IC50 (IL-18Rα): 0.012 µM
